Here are results for three substances from publication doi:10.1101/296376.

Sequences of proteins named here, by UniProt entry; tags and fusion partners are left off. Residues count along the entry.
EGFP-Myo19-tail (aa 824-970) (Q96H55, residues 824-970): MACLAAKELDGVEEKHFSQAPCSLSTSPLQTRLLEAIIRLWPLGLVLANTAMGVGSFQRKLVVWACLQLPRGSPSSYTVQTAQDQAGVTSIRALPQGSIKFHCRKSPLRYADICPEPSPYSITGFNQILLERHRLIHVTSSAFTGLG
EGFP-Myo19 N-tail (aa 824-897) (Q96H55, residues 824-897): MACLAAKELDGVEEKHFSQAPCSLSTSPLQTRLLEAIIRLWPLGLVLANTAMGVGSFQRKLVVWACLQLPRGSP
EGFP-Myo19 C-tail (aa 898-970) (Q96H55, residues 898-970): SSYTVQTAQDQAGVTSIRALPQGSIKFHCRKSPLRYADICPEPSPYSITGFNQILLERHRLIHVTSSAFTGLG

What all share (test): retargeting to early endosomes
The target of test [1] is mCherry-Miro-1-ΔTM-2xFYVE (human) (UniProt Q8IXI2).
The target of test [2] is T1, mCherry-Miro1(T18N)ΔTM-EE (human) (UniProt Q8IXI2).
T1 sequence: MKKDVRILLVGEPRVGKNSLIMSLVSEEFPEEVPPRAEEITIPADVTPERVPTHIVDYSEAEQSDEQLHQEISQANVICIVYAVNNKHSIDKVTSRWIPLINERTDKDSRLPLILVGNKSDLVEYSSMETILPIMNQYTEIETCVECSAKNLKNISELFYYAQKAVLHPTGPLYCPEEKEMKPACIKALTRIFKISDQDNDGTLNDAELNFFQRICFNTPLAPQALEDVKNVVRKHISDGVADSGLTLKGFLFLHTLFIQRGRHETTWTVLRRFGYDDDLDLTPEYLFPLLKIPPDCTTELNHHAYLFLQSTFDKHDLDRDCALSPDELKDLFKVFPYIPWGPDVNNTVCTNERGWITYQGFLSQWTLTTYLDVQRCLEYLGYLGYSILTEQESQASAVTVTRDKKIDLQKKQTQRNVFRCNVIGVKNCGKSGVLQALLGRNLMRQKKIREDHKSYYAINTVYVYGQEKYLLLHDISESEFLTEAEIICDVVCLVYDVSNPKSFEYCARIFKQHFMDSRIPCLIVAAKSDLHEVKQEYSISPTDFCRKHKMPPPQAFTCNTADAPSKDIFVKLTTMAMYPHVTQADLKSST

In test [3] the target is T2, mCherry-Miro-1-aa1-408-2xFYVE (human) (UniProt Q8IXI2).
T2 sequence: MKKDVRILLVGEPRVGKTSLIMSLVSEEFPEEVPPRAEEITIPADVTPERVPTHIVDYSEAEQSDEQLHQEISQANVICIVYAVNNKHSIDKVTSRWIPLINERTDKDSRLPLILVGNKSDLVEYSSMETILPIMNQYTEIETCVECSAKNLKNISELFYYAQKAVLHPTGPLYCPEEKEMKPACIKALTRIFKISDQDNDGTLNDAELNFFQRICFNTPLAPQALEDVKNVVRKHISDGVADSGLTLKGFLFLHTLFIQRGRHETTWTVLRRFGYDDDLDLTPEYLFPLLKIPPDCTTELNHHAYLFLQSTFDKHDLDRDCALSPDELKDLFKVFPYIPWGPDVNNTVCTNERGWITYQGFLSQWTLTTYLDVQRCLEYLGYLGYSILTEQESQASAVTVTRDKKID

These are yes or no findings as the source states them, for the method shown. Some binding calls cover weakened binding; strength is not graded here.

With “EGFP-Myo19 C-tail (aa 898-970) (from UniProt Q96H55 898-970) (domain or fragment)”, the figures for the binding result in test [1], in test [2] and in test [3] were “binds”, “no binding” and “binds”, respectively.

Take “EGFP-Myo19 N-tail (aa 824-897) (from UniProt Q96H55 824-897) (domain or fragment)”: in test [1], the binding entry is “no binding”.

Regarding “EGFP-Myo19-tail (aa 824-970) (from UniProt Q96H55 824-970) (domain or fragment)”, the results for the binding result in test [1], in test [2] and in test [3] were “binds”, “no binding” and “binds”, respectively.
